Results: PubChem BioAssay AID1439 (NMMLSC, 2008)
About 770 (0.35%) of roughly 220,000 compounds were called active. Inconclusive results, whose numbers are uncertain, are shown with a selection of clear calls. Cut-off read from the data, not from the text of the source: active = binding response below about 49% or above about 150%; inconclusive = no clear call, values can overlap the other calls; inactive = in between.

Chains of the proteins cited; added tags and fusions are not shown.
UniProt P09471, whole entry, looked up: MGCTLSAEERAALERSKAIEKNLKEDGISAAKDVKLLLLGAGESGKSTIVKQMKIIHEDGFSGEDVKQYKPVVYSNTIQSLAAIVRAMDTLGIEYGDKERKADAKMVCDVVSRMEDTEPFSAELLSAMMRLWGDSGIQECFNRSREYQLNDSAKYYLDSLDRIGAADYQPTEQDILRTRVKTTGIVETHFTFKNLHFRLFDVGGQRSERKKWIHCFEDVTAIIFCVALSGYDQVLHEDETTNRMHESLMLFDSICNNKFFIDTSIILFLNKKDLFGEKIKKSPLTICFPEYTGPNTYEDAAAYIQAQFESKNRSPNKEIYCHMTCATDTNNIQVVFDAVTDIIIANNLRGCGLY

Each molecule was assayed against Guanine nucleotide-binding protein G(o) subunit alpha (Homo sapiens) (UniProt P09471) (assay: RGS7-Galphao binding modulators, primary screen, biochemical, multiplexed bead flow cytometry (AID 1439;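 note: fluorescent Galphao held in activated GDP-AlF4 state binding bead-coupled RGS7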)). Details: at 10 µM, actives lie on both sides.
`CCCCc1c(C)nc2c(OC)cccc2c1SCC(=O)O` was tested, and the binding response (% of control) was inconclusive: 95%. In the case of `O=C(CSc1cccc[n+]1[O-])CSc1cccc[n+]1[O-]`, the binding response (% of control) is reported as inconclusive: 106%. For `Nc1ccc(NC(=O)c2ccco2)c(Cl)c1`, the binding response (% of control) was inactive: 107%. `CCOc1ccc(C2C3=C(CCCC3=O)OC(N)=C2[N+](=O)[O-])cc1` (stereo not given) was tested, and the binding response (% of control) was inconclusive: -195%. With `COc1cc(OC)c2c(c1O)OC(c1ccccc1)CC2=O` (stereo not given) the binding response (% of control) was inactive: 95.1%. `CN(C)C(CNC(=O)C1CCN(S(=O)(=O)c2ccccc2)CC1)c1ccccc1` (stereo not given) was tested, and the binding response (% of control) was inconclusive: 124%. In the case of `Cc1ccc(S(=O)(=O)N(C)C)cc1NC(=S)Nc1ccc2cn[nH]c2c1`, the binding response (% of control) is reported as inconclusive: 107%. `COc1ccc(C(=O)NNC(=O)Nc2ccc(Cl)cc2)cc1` was tested, and the binding response (% of control) was inconclusive: 133%. `O=C1CC(NNc2nc3ccccc3s2)C(=O)N1c1ccccc1` (stereo not given) was tested, and the binding response (% of control) was inactive: 96.4%. `O=C(NNC1CC(=O)N(c2ccc(F)cc2)C1=O)c1cccnc1` (stereo not given) was tested, and the binding response (% of control) was inconclusive: 116%. With `COC(=O)c1c(C)c[nH]c1C` the binding response (% of control) was inactive: 102%. For `CCCCCC(=O)N1CC2(CC(c3cccc(NC(=O)[C@@H]4CCC(=O)N4)c3)=NO2)C[C@@H]1C(N)=O` (stereo not given in full), the binding response (% of control) was inconclusive: 104%. `Clc1ccc(Oc2nc3c(Cl)cccc3s2)cc1Cl` was tested, and the binding response (% of control) was inconclusive: 71.4%. For `CCCNC(=O)CCn1nc(-c2ccc(Cl)cc2)c2ccccc2c1=O`, the binding response (% of control) was inconclusive: 108%. `CC(=O)NS(=O)(=O)c1ccc(NC(=O)CSc2ccc(C)cc2)cc1` was tested, and the binding response (% of control) was inconclusive: 74.3%. With `CCc1ccc(CCN2C(=O)c3ccccc3C2=O)nc1` the binding response (% of control) was inconclusive: 96.2%. `CC(C)CNC(=S)N1CCC(C(=O)c2ccc3c(c2)OCCO3)CC1` was tested, and the binding response (% of control) was inactive: 99%. `COc1cc2c(cc1OC)CN(C(=O)c1ccc([N+](=O)[O-])o1)CC2` was tested, and the binding response (% of control) was inconclusive: 68.6%. `CC(C)S(=O)(=O)c1cnc(N2CCOCC2)nc1N` was tested, and the binding response (% of control) was inconclusive: 65.8%. In the case of `CCN(CC)C(=O)c1sc2nc(-c3cccs3)cc(-c3cccs3)c2c1N`, the binding response (% of control) is reported as inconclusive: -1.8%. `Cc1cc(NC(=O)C2C3C(=O)N(Cc4ccc(Cl)cc4)C(C(=O)NCc4ccccc4)C34C=CC2(C)O4)no1` (stereo not given) was tested, and the binding response (% of control) was inactive: 98.6%. With `CCOc1ccc(N=Nc2c(N)[nH][nH]c2=O)cc1` the binding response (% of control) was inactive: 98.2%. With `CCc1nccn1S(=O)(=O)c1cc(Br)ccc1OC` the binding response (% of control) was inactive: 101%. For `Oc1ccc(-n2cccc2/C=N/n2cnnc2)cc1`, the binding response (% of control) was inactive: 94%. `COc1ccc(C(CC(=O)O)NC(=O)c2ccccc2[N+](=O)[O-])cc1` (stereo not given) was tested, and the binding response (% of control) was inactive: 105%. For `Cn1c(=O)c2c(nc(N/N=C/c3ccncc3)n2Cc2ccccc2)n(C)c1=O`, the binding response (% of control) was inconclusive: 71%. In the case of `CN(c1ccccc1)S(=O)(=O)c1cccc(NC(=O)c2ccc3ncsc3c2)c1`, the binding response (% of control) is reported as inconclusive: 105%. In the case of `CCCCNC(=O)CSc1nc(N)c(C(=O)Nc2ccc(OC)cc2)s1`, the binding response (% of control) is reported as inconclusive: -88.7%. With `CCOc1ccc(NC(=O)N(CCC(C)C)C2CCN(C(C)=O)CC2)cc1` the binding response (% of control) was inactive: 122%. With `COc1ccccc1NS(=O)(=O)c1cc(NC(=O)c2sccc2C)ccc1N1CCOCC1` the binding response (% of control) was inconclusive: 59.7%. In the case of `NC(=NC1CCCCC1)c1ccc(Cl)cc1`, the binding response (% of control) is reported as active: 195% [activator]. `CCCNC(=O)c1ccc2c(=O)c(O)c(-c3cccc(Br)c3)[nH]c2c1` was tested, and the binding response (% of control) was inconclusive: 115%. With `Cc1onc(-c2c(Cl)cccc2Cl)c1/C(N)=N/OC(=O)C(C)(C)C` the binding response (% of control) was inconclusive: 121%. In the case of `O=C(NCC1(N2CCOCC2)CCCCC1)c1cccc(S(=O)(=O)N2CCc3ccccc3C2)c1`, the binding response (% of control) is reported as inactive: 101%. For `CCCSc1ncccc1C(=O)O`, the binding response (% of control) was inconclusive: 111%. `Cc1ccc(/C=C(\C#N)C(=O)Nc2ccccn2)o1` was tested, and the binding response (% of control) was inconclusive: 107%. `Cc1cc(C(=O)CSc2nnc(-c3ccc4c(c3)OCO4)o2)c(C)n1-c1ccc(F)cc1` was tested, and the binding response (% of control) was inactive: 99.5%. For `CC(C)N(c1ccccc1)c1ccc(NC(=O)CCl)cc1`, the binding response (% of control) was inconclusive: 69.2%. `COc1cc(/C=N/NC(=O)C(N)=O)ccc1OCC(=O)N1C(C)CCCC1C` (stereo not given) was tested, and the binding response (% of control) was inactive: 104%. With `CCN(CC(=O)NC(C)C)C(=O)C(CCSC)NC(=O)c1ccccc1OC` (stereo not given) the binding response (% of control) was inconclusive: 99.2%. `Cn1cccc1CC(=O)N/N=C/c1ccc(Cl)cc1` was tested, and the binding response (% of control) was inconclusive: 134%. `CC(=O)c1ccc(Sc2ccccc2)c([N+](=O)[O-])c1` was tested, and the binding response (% of control) was inconclusive: -22.3%. For `CCC(C(=O)Nc1ccsc1C(=O)OC)c1ccccc1` (stereo not given), the binding response (% of control) was inactive: 112%. With `COc1ccccc1CCNC(=O)CSc1nnc2ccc(-c3ccncc3)nn12` the binding response (% of control) was inconclusive: 106%. `O=C(Nc1nnc(COc2ccc(F)cc2)s1)c1ccco1` was tested, and the binding response (% of control) was inconclusive: 109%. With `COc1c(Cl)cccc1-c1cn2ccccc2n1` the binding response (% of control) was inconclusive: 99.3%. With `C/C(=N\Nc1nc(C)cc(C)n1)c1ccc(C)o1` the binding response (% of control) was inconclusive: 99.1%. With `Cc1cc(OC(C)C(N)=O)nc(-c2ccccc2)n1` (stereo not given) the binding response (% of control) was inactive: 103%. For `CC(C)(CC(=O)O)CC(=O)Nc1ccccc1Oc1ccccc1`, the binding response (% of control) was inconclusive: 119%. With `CC1=NN(S(=O)(=O)c2ccc(C)cc2)C(=O)c2ccccc2O1` the binding response (% of control) was inconclusive: 100%. `CCCCCC(=O)Nc1ccc(-c2cn3cccnc3n2)cc1` was tested, and the binding response (% of control) was inconclusive: 110%. With `NC(=O)c1ccsc1NC(=O)c1ccc(N2CCCC2=O)cc1` the binding response (% of control) was inconclusive: 103%. In the case of `COc1ccc(C2/C=C\CN(C(=O)Oc3ccc(C(F)(F)F)cc3)CC(=O)N2Cc2ccc(F)cc2)cc1` (stereo not given), the binding response (% of control) is reported as inconclusive: 107%. For `COc1ccc(C2/C=C\CN(C(=O)c3ccccc3)CC(=O)N2Cc2ccc(F)cc2)cc1` (stereo not given), the binding response (% of control) was inconclusive: 121%. `C/C(=N\OCC(=O)Nn1c(C)nc2ccccc2c1=O)c1cccs1` was tested, and the binding response (% of control) was inconclusive: 102%. For `COC(=O)/C(=C/c1ccco1)NC(=O)c1ccc(Br)o1`, the binding response (% of control) was inconclusive: 90.5%. For `O=C(Nc1ccccc1)OC1CCCCc2cccnc21` (stereo not given), the binding response (% of control) was inconclusive: 86%. With `CCC1(c2ccccc2)NC(=S)N(c2cccc(C)c2C)N1` (stereo not given) the binding response (% of control) was inactive: 98.5%. `CC1(C)Cc2c(sc3[nH]c(=S)[nH]c(=O)c23)CO1` was tested, and the binding response (% of control) was inactive: 101%. For `S=C(NN=C(C1CC1)C1CC1)Nc1ccccc1`, the binding response (% of control) was inactive: 99.9%.
